# System: hT40, dGA, dGAE and truncated tau fragments/peptides
# Test: Binding ELISA for epitope mapping with truncated tau proteins and biotinylated 13mer peptides
# Parameters: species or system human
# Details: mAbs, Table 25 (Example 28)
# Method: A series of binding ELISA was performed using various truncated versions of the tau protein and 13mer peptide libraries spanning the entire hT40 molecule for mapping the epitopes of anti-tau scAbs (Full list of protein antigens used is given in Table 14). In general, ELISA plates were coated with 1 μg/ml hT40 or dGA or dGAE or other truncated versions of the protein and in the case of biotinylated peptides, plates were coated with 5 μg/ml Streptavidin followed by 1 μg/ml biotinylated peptide. The plates were blocked with 2% MPBS and scAb samples added at desired starting concentrations and double diluted across the plate. Binding was detected using anti-Human C Kappa HRP conjugated secondary antibody and the resulting immunoreaction was developed and absorbance values measured as described above.
# Similarly, dGA binding ‘NS’, ‘S’ and ‘M’ group scAbs were subjected to further antigen binding ELISA using shorter tau proteins and biotinylated 13mer peptides as shown below (FIGS. 10A-F) and (FIGS. 11A-R).
# For anti-tau mAb SPR measurements (Biacore X100™) and epitope mapping, the same methodologies described above (see Example 16) were followed.
row,Molecule,hT40 binding region
1,"3aG3: anti-tau clone, SEQ ID NO: 424 (protein, 3aG3 amino acid sequence) scFv: QVQLQESGPSLVKPSQTLSLTCTVSGFSLSSNGVGWVRQAPGKVPEWVGDISSSGKAYANPALKSRLSITRDTAKTQVFLSLSSVTTEDTAVYYCVRCRDGGVSYGYDIDYWGPGLLVTVSSEGKSSGASGESKVDDQAVLTQPPSVSGSPGQRVSITCSGSSSNIGGGNYLSWFQQVPGSAPKLLIYGATSRASGVPDRFSGSRSGNTATLTISSLQAEDEADYYCASFDTSSGGIFGAGTRLTVLG",1-15
2,"3aH6: anti-tau clone, SEQ ID NO: 423 (protein, 3aH6 amino acid sequence) scFv: QVQLQESGPSLVKPSQTLSLTCTVSGFSLSSNGVGWVRQAPGKVPEWLGDISSVGKKYANPALKSRLSFTRDTSKSQVSLSLSSVTTEDTAVYYCVKCRDGGVTYGYDIDYWGPGLLVTASSEGKSSGASGESKVDDQAVVTQPSSVSGSLGQSVSITCSGSSGNVGYGDYVSWFQQFHGSAPKLLIYGATNLASGVPARFSGSRSGNTATLTISSLHAEDEADYYCASYDSSSGGVFGSGTRLTVLG",1-15
3,3bD11 (protein) scFv: RVRLQGSGPSLVKPSQTLSLTCTVSGFSFDSYYVGWVRQAPGKALEWLGNIYSTGRAFYNPALKSRLSITRDTSKSQVSLSVSSVTIEDTALYYCVRGSYYHGGGNGMVDFFDYWSPGLLVTVSSEGKSSGASGESKVDDQVVRTQPSSVSGSLGQRVSITCSGSSSNVGYGNYVGWFQQVPGSAPKLLIYAATSRASGVPDRFSGSRSGNTATLTIDSLQAEDEADYYCSSYQRGNTGVFGSGTRLTVLG,37-49
4,"MD9/MoD9: anti-tau clone, SEQ ID NO: 373 (protein, MD9 amino acid sequence) scFv: QVRLQESGPSLVKSSQTLSLTCTVSGFSLTRESIAWVRQAPGKVPEWLGGVGIDGTSYYSPALKSRLSITRDTSKSQASLSLSSVATEDTAMYYCARNYIDFEYWGPGLLVTVSSEGKSSGASGESKVDDQAVLTQLSSVSGSLGQRISITCSGSSSNVGIYDVSWFQQLPGSGLRTVIYGTNNRPSGVPDRFSGSRSGNTATLTISSLQSEDEAIYYCAAGDSSTIAVFGSGTRLTVLG",373-385
5,"3bG4: anti-tau clone, SEQ ID NO: 425 (protein, 3bG4 amino acid sequence) scFv: QVQLQESGPSLVKPSQTLSLTCTISGFSLISNGVGWVRQAPGKVPEWVGDIASSGKAYSNPALKSRLSITRDTSKSQVSLSLRSVTTEDTAVYYCVRCRDGGVTYGYDIDYWGPGLLVTVSSEGKSSGASGESKVDDQAVLTQPSSVSKSLGQSVSITCSGSTSNVGSGNDVSWFQQVPGSAPKLLFYGATNRASGVPDRFSGSRSGNTATLTITSLQAEDEADYYCGSYDSNSGGIFGSGTRLTVLG",1-15
6,"CE2: anti-tau clone referred to as CE2 or E1B8, SEQ ID NO: 366 (protein, CE2/E1B8 amino acid sequence) scFv: QVQLQESGPSLVKPSQTLSLTCTVSGFSLTNYPVGWVRQAPGKALEWIGNIENDGSANYASALKSRLSITRDTSKNQVSLSLSSATTEDTAVYYCGREFGGSDGYTYFVDIDYWGPGLLVTVSSEGKSSGASGESKVDDQAVLTQPSSVSKSLGQSVSITCSGSSSNVGYGNYVSWFQQVPGSAPKILIYGATSRASGVPDRFSGSRSGNTATLTITSLQAEDEADYYCASYDGSSSGVFGSGTRLTVLG",319-331

# Same assay, conditions: own antibodies, as noted in Simoa Table 26
row,Molecule,Binding region hT40
1,"3bG4: anti-tau clone, SEQ ID NO: 425 (protein, 3bG4 amino acid sequence) scFv: QVQLQESGPSLVKPSQTLSLTCTISGFSLISNGVGWVRQAPGKVPEWVGDIASSGKAYSNPALKSRLSITRDTSKSQVSLSLRSVTTEDTAVYYCVRCRDGGVTYGYDIDYWGPGLLVTVSSEGKSSGASGESKVDDQAVLTQPSSVSKSLGQSVSITCSGSTSNVGSGNDVSWFQQVPGSAPKLLFYGATNRASGVPDRFSGSRSGNTATLTITSLQAEDEADYYCGSYDSNSGGIFGSGTRLTVLG",(Binding region hT40 1-15)
2,"CB7: anti-tau clone, SEQ ID NO: 364 (protein, CB7 amino acid sequence) scFv: QVQLQESGPSLVKPSQTLSLTCTVSGFSLTNYRVGWVRQAPGKALEWVSNIRSGGTTWYNPALKSRLSITADTSKSQVSLSLSSVTTEDTAVYYCARDSSGDLYAYDYWGPGLLVTVSSEGKSSGASGESKVDDQAVLTQPSSVSRSLGQSVSMTCSGSSSNVGYGNYMAWFQQVPGSAPKLLIYGATSRASGVPDRFSGSRSGNTATLTISSLQAEDEADYYCASYDSTSGGVFGSGTRLTVLG",(Binding region hT40 13-25)
3,"S1D12: anti-tau clone from immunised sheep, SEQ ID NO: 32 (protein, S1D12 amino acid sequence) scFv: QVQLQESGPSLVKPSQTLSLTCTVSGFSLNNNAVGWVRQAPGKVPESLVGCSSDGTCYYNSALKSRLDITRDTSKNQISLSLSSVTTDDAAVYYCTRGHYSIYGYDYLGTIDYWGPGLLVTVSSEGKSSGASGESKVDDQAVLTQPSSVSGSLGQRVSITCSGSSSNVGGGNSVGWYQHLPGSGLKTIIYDTNSRPSGVPDRFSGSRSGNTATLTINSLQAEDEGDYYCVTGDSTTHDDLVGSGTRLTVLG",(Binding region hT40 337-355)
4,"S1G2: anti-tau clone, SEQ ID NO: 81 (protein, S1G2 amino acid sequence) scFv: QVQLQESGPSLVKPSQTLSLTCTVSGFSLTSNSVGWVRQAPGKAPEWVAGIDTDGEEGYNPALNSRLSITRDTSKSQVSLSLSSVTSEDTAVYYCGRSYRADGLAYGYVQAIDYWGPGLLVTVSSEGKSSGASGESKVDDQAVVTQPSSVSGSLGQRVSITCSGSFIGISSVGWFQQLPGSGLRTIIVASDGRPSGVPDRFSMSKSGNTATLTISSLQAEDEADYFCGSSDRTPYTGVFGSGTRLTVLG",(Binding region hT40 367-379)

# Source: patent US12624096B2, “Anti-tau antibodies and methods of use thereof” (GTInvent Limited, priority 2020, dated 2026)
